Screen size: about 53,000 sequences; about 3,700 (7%) were called active.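 Rule for the calls: active = gene knockdowns whose robust z-score for IL-1 alpha signal is at least 2 or at most -2, so actives lie on both sides; inactive = the rest.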 Some of the results follow.

This test in a line: Components of the Cytosolic LPS Sensing Pathway: Gene Identification via Genome-wide siRNA Screen.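 Note: robust z of the log signal after scaling to non-targeting control siRNA wells of the plate.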 Particulars: RAW264.7 macrophages, IL-1a HTRF, actives lie on both sides, screened at 100 nM (by protocol), cells primed 5 h with Pam3CSK4 first. The procedure, abridged: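 Supernatant IL-1a by HTRF from RAW264.7 cells primed with Pam3CSK4 (5 hours) and transfected with LipidA (24 hour) after 48h siRNA knockdown at 100 nM; cell viability checked with CellTiter-Glo.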
As to CCAAAGAAGUUGACUUUUCTT against Rhpn2, the z-score was inactive: -0.629. For CGAUUCCUGGACCAUUGUUTT against Tm6sf1, the z-score is inactive: 0.264. For the sequence GGAAAGAAGUAUGCCCACATT against Acp5, the z-score was inactive: -1.63. Then GCAGAAUUGAAUAUUAAGCTT against Upk1b, with inactive: 1.27; and GGAGUAAUGAUAAGCCCUCTT against Tex264, with inactive: -0.0637.

Regarding CCCAAUGCUUGGUGCCUUUTT against C1qtnf2, the z-score is inactive: -0.872. Regarding GGCGUAGGGCCAUAUCAUUTT against Olfr109, the z-score was inactive: -0.117. Consider GGCCUUGAAUAGAAAAUGGTT against Olfr1055, for which the z-score is inactive: -1.21. For the sequence CGCAAAAACUGGUGUAACCTT against Arhgef1, the z-score was inactive: -0.958.

As for GGCAUUUGCACAGUUUAUGTT against Upp2, the z-score was inactive: -1.42.

Consider GGACUUGGAACAGAAAAAGTT against Asb8, for which the z-score was inactive: -0.261.

On to GGUUUUCAAAGUCCUGAAUTT against Myo3a, for which the z-score is inactive: -1.96. For GGAACAGGAAUGGUAAUGCTT against Tmem39a the value was inactive: -1.26; for GGCUUGUGUCCACUUAGCATT against Olfr1404, inactive: -1.01; for GGCUCUUCGUCGGAAGAAUTT against Ccdc9, inactive: -0.292. Take GACGACAUUCAUGAAGCGCTT against Rasl2-9: the z-score was inactive: -1.21. As for GGAUAUCAUGAAAACACUCTT against Katna1, the z-score is inactive: -0.385. For GGUACAUGUAUUGUUUCACTT against Cyp2c38, the z-score is active: 2.76. For the sequence CCGCCUACAUGGUUCUCUUTT against Vat1, the z-score was inactive: -1.46.

Take GGGCUUCUUUAGAAGAACCTT against Thrb: the z-score is inactive: 1.94. Then GGACUUUGUUUCUUGAUGGTT against Dkk1, with inactive: -0.771.

Consider GCUUUCGUGUGAUCUUUUATT against Derl2, for which the z-score is inactive: -0.435. For GGUCUUUUCUACAUGUGGATT against Olfr389 the value was inactive: 0.268. As for GGUGAUGCCUUAUUUUGAATT against Ap5s1, the z-score is inactive: -1.1. For GGAUGCUCUGCUAAUGAUUTT against Cadps2 the value was inactive: -0.0687. Turning to GGUACAUACUUAUGAAAAGTT against Havcr1, the z-score is inactive: 0.35. With GGAUACAGUUUCUGAAAUCTT against Mlxipl, the z-score was active: 2.6. On to CGAUUUGCCUUAUUUUUCATT against Litaf, for which the z-score was inactive: 1.23. With GGAAAAGGUUACCUUGCCCTT against Clmp, the z-score is inactive: -0.255. Take CGGAGAGACUUUGCCUCUATT against Samd11: the z-score was inactive: -1.25.

Turning to CCUAGAGCGUGCCCUAGAATT against Taco1, the z-score was inactive: -0.231.

As to GGCCAGUCACUCAACCUUATT against Phc1, the z-score was inactive: -0.421. For GGUAUUCUUCUACACUCCATT against Mrm1, the z-score is inactive: -0.693.

Take GCGUGUUCACUUGUGUGGUTT against Ap5z1: the z-score is inactive: 0.553. Turning to GGACAGCCCUUCUUUGUCUTT against Il17rb, the z-score is inactive: -1.96.

Turning to CCUCAAUGAAGACCCAUUATT against Kif1b, the z-score is inactive: -1.35. As for GGUAUAAUUUAGGUGACUATT against Epc1, the z-score was inactive: -0.723.

For GAUGUUUCAGAACAUUCUUTT against Cadps, the z-score was inactive: 0.436. As for CGAAUAUCUGCAUUUAUUGTT against Mbip, the z-score is inactive: 0.513. Then GCCAAUUUGACUUGUAAGUTT against Slc22a3, with inactive: 1.4.

With GGUUCUCCAUACUUAUGCCTT against Prex1, the z-score is active: 2.97. As to CCCUUUGCCGAAUACAUUUTT against Dpys, the z-score was inactive: 0.892.

For GGAAGAUCAUUGAUAACGCTT against Mctp1, the z-score was inactive: 0.89. For the sequence CCAAACCUGUCUCUUAUCATT against Slco1c1, the z-score is inactive: 0.385. For GCAAUCAAGGUUAAAAUUGTT against Slfn2 the value was inactive: 0.0834; for GGCGGCACAAAUUGUUUUUTT against Gimap9, active: -2.03; for GGGCUUGUUAGCAUCAUCCTT against Olfr382, inactive: 1.31. As to CCAUAUAGCCUCAAAAUCGTT against Acat2, the z-score was inactive: -0.395.

On to GGGUGACAACGGUUCUUACTT against Siglech, for which the z-score is inactive: -0.626. Then GGCAAGAGGAAAAAGCGGATT against Rpusd2, with inactive: 0.0506; and GGCAAUAACAUUGCCUCGGTT against Igf1r, with inactive: 0.632. Then GGAGAUCUACAAGGAAUUCTT against Men1, with inactive: 0.97; and GGGCAAGGAUGUGUUGAAATT against Dhx37, with inactive: 0.315; and CGUGCUUAUUUUCAAGAAGTT against Kdf1, with inactive: -0.0767. With CCACAAUUGGGUAAGAUUATT against Glipr2, the z-score was inactive: -0.585. As to GGAAUUCAACAGACAAAUATT against Paip2, the z-score is inactive: 0.0793. Then GGUAAAGCCAAAGAACAAATT against Enpp2, with inactive: 1.11. GACGAAAACCAACAGCACGTT against Rbp2: the z-score is inactive: -0.0422.

CCAACGCGCACGGCCGCGCTT against Tmem158: the z-score is inactive: -0.359. With GGUAGCUGAAGAAGACUUCTT against Reg2, the z-score was inactive: -0.591. As to GGCUAACAAACUCAUACCCTT against Guca2a, the z-score was inactive: -1.68.

For the sequence GGAGGAAUUUCUUCUCUAUTT against Slc22a29, the z-score was inactive: -1.83. Take GGAAGAGGAAGAAAUUAUATT against Zbtb33: the z-score is inactive: 0.684. Turning to GGACCAAUCCUACAAUAUATT against Cyp19a1, the z-score is inactive: 0.289.

For GGUAUUCACAAAGAGAUACTT against Parp8, the z-score is inactive: 0.107.

As to GGAUAUAGAUCUGAUUGACTT against Nfe2l1, the z-score is inactive: 0.969. As to CCUGGUGUUCGUGUACCUGTT against Cdk5r2, the z-score is active: 3.1.

Consider GGACAACAUACGAUAUUCATT against C2cd6, for which the z-score is inactive: -0.207.

Values taken from PubChem BioAssay AID1508600 (Functional Genomics Laboratory (NCATS/FGL), 2020).
